Experimental data: PubChem BioAssay AID1224828 (NIAID, 2016)

- Screen: 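Find genes required for NF-kappaB p65 moving into the nucleus after LPS in mouse macrophages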 (primary screen)
- System: mouse RAW264.7 G9 macrophage reporter cells (GFP-p65, Tnf promoter-mCherry)
- Knock-down reagent: siRNA pool against mouse genes, 100 nM
- Timing: 2 days siRNA transfection, then 40 min LPS before fixation
- Treatment: LPS (Salmonella minnesota R595) at 10 ng/ml
- Measurement: 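Imaged p65 nuclear translocation ratio, normalised to the plate median, converted to robust z-scores and averaged across two replicates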
- Scale: p65 translocation robust z-score: higher = more nuclear NF-kappaB p65 after LPS than the plate median; nuclear/cytoplasmic p65 ratio: higher = more nuclear NF-kappaB p65
- Rule for the call: 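Called active when z exceeds 3.3 or falls under -1.56 (median of Tlr4 controls), giving activity score of at least 50; no calls for control wells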
- Calls: active = hit (p65 shift raised or lowered); inactive = no clear change
In all, the deposit lists about 17,000 reagents; shown is a random part of them. Over the whole deposit, 762 (4.5%) were called active. 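Active calls include both raised and lowered p65 entry, mostly lowered; wells with fewer than 50 cells lack a z-score.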 Raw values are not corrected between plates. The numbers tell different reagents against one gene apart.

gene knocked down | reagent no. | p65 translocation robust z-score | nuclear/cytoplasmic p65 ratio, rep 1 | nuclear/cytoplasmic p65 ratio, rep 2 | low cell count flag | outcome
Paqr8 (progestin and adipoQ receptor family member VIII) | 1 | – | 1.55 | 1.66 | fewer than 50 cells per well; well left out of scoring | inactive
Nars2 (asparaginyl-tRNA synthetase 2 (mitochondrial)(putative)) | 1 | 1.9 | 1.91 | 1.96 | enough cells to score | inactive
Kcnj5 (potassium inwardly-rectifying channel, subfamily J, member 5) | 1 | – | 1.46 | 1.35 | fewer than 50 cells per well; well left out of scoring | inactive
Luzp1 (leucine zipper protein 1) | 1 | 1.73 | 1.9 | 1.87 | enough cells to score | inactive
Cebpd (CCAAT/enhancer binding protein delta) | 1 | -2 | 1.25 | 1.5 | enough cells to score | active
Adora3 (adenosine A3 receptor) | 1 | -0.1 | 1.46 | 1.61 | enough cells to score | inactive
Adora3 (adenosine A3 receptor) | 2 | -0.59 | 1.82 | 1.34 | enough cells to score | inactive
A930012O16Rik (RIKEN cDNA A930012O16 gene) | 1 | -0.93 | 1.32 | 1.4 | enough cells to score | inactive
Icosl (icos ligand) | 1 | 3.27 | 2.06 | 1.83 | enough cells to score | inactive
Yipf7 (Yip1 domain family, member 7) | 1 | – | 1.12 | 1.44 | fewer than 50 cells per well; well left out of scoring | inactive
Abcg8 (ATP binding cassette subfamily G member 8) | 1 | 0.15 | 1.65 | 1.62 | enough cells to score | inactive
Lix1 (limb and CNS expressed 1) | 1 | 2.45 | 2.11 | 1.89 | enough cells to score | inactive
Ctsd (cathepsin D) | 1 | 0.07 | 1.34 | 1.37 | enough cells to score | inactive
Rpl24 (ribosomal protein L24) | 1 | – | 1.48 | 1.26 | fewer than 50 cells per well; well left out of scoring | inactive
Apobr (apolipoprotein B receptor) | 1 | -0.85 | 1.51 | 1.47 | enough cells to score | inactive
Strn4 (striatin, calmodulin binding protein 4) | 1 | -0.83 | 1.44 | 1.14 | enough cells to score | inactive
Slitrk4 (SLIT and NTRK-like family, member 4) | 1 | -0.56 | 1.16 | 1.17 | enough cells to score | inactive
Slc44a1 | 1 | – | 1.4 | 1.51 | fewer than 50 cells per well; well left out of scoring | inactive
Mecom (MDS1 and EVI1 complex locus) | 1 | -0.97 | 1.59 | 1.22 | enough cells to score | inactive
Mecom (MDS1 and EVI1 complex locus) | 2 | -0.6 | 1.33 | 1.3 | enough cells to score | inactive
Wfdc5 (WAP four-disulfide core domain 5) | 1 | -0.44 | 1.48 | 1.81 | enough cells to score | inactive
Cep68 (centrosomal protein 68) | 1 | -0.48 | 1.59 | 1.66 | enough cells to score | inactive
Naip1 (NLR family, apoptosis inhibitory protein 1) | 1 | 0.78 | 1.81 | 1.65 | enough cells to score | inactive
Serf2 (small EDRK-rich factor 2) | 1 | -0.02 | 1.29 | 1.26 | enough cells to score | inactive

2 entries from above, arranged by “nuclear/cytoplasmic p65 ratio, rep 1”, low to high:
gene knocked down | reagent no. | p65 translocation robust z-score | nuclear/cytoplasmic p65 ratio, rep 1 | nuclear/cytoplasmic p65 ratio, rep 2 | low cell count flag | outcome
Kcnj5 (potassium inwardly-rectifying channel, subfamily J, member 5) | 1 | – | 1.46 | 1.35 | fewer than 50 cells per well; well left out of scoring | inactive
Luzp1 (leucine zipper protein 1) | 1 | 1.73 | 1.9 | 1.87 | enough cells to score | inactive
